We go through 62 molecules from PubChem BioAssay AID493014 (National Center for Advancing Translational Sciences (NCATS), 2011).

Several values for one entry are separate records, joined by “and”; a condition that tells them apart may be missing. Equal entries are not always repeated. Some of the results follow. The main result of the screen is listed elsewhere. These columns were measured beside it and carry no call. Most of these compounds were active or inconclusive in the main read-out, so they are no random draw. Potencies come from curve fits of mixed quality, noted in brackets.

A short description of this assay: qHTS Assay to Find Inhibitors of Chronic Active B-Cell Receptor Signaling. To be noted: ABC-DLBCL IkBa-CBG/CBR reporter, luminescence ratio (green luciferase fused to IkBa over red control in TMD8 lymphoma cells), 4 h. The procedure, abridged: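 TMD8 ABC-DLBCL cells carrying doxycycline-inducible green luciferase fused to IkappaBalpha plus unfused red luciferase were exposed to compounds (up to 46 uM) for 4 hrs at 37C. Activity came from the overlap-corrected green/red luminescence ratio.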

Setting [1] is: measured here: CBR red luminescence, cell number.
Setting [2] is: measured here: IkBa-CBG green luminescence.

With `COc1ccc(NS(=O)(=O)c2cc(NC(=O)c3nn(C)c(=O)c4ccccc34)ccc2OC)cc1`, the AC50 (usually the midpoint of the concentration-response curve, whichever way the signal moves) under setting [1] was 4.47 µM [rising, partial curve].

`COc1cc(C(=O)c2cocc2C(=O)c2ccc3c(c2)OCO3)cc(OC)c1OC`: the concentration at half-maximal activity (AC50) under setting [1] was 15.8 µM [rising, partial curve] and the AC50 under setting [2] is 11.2 µM [falling, partial curve].

Regarding `O=C(CSC1=Nc2ccccc2C2=NC(Cc3c[nH]c4ccccc34)C(=O)N12)NC1CCCCC1` (stereo not given), the AC50 under setting [1] is 32.6 µM [falling, partial curve, poor fit].

Regarding `C=C1CC(C(=O)N/N=C/c2ccc(O)cc2)C1`, under setting [1], the AC50 is 23.1 µM [falling, single point].

As to `CCc1noc(C)c1C(=O)Nc1nc(-c2ccc(OC)c(OC)c2)cs1`, the AC50 under setting [1] is 16.4 µM [falling, partial curve, poor fit].

With `COc1ccc(S(=O)(=O)CC(=O)c2cc3cccc(C)c3oc2=O)cc1`, the AC50 under setting [1] was 22.4 µM [falling, partial curve, poor fit].

On to `CN(C)C=Nc1ccc2nn(-c3ccccc3)nc2c1`, for which the AC50 under setting [1] was 35.5 µM [falling, single point].

With `O=C(c1ccccc1-c1nc(-c2ccccc2)no1)N1CCCC1`, the AC50 under setting [1] is 6.51 µM [rising, partial curve, poor fit].

On to `COc1ccc(S(=O)(=O)N2CCN(c3ccc(C)cc3C)CC2)cc1OC`, for which the AC50 under setting [1] was 11.6 µM [falling, single point].

As to `Cc1ccc2nc(NC(=O)COC(=O)c3ccccn3)sc2c1`, under setting [1], the AC50 is 5.01 µM [falling, full curve, poor fit].

Regarding `CCN(CC(=O)Nc1ccccc1SC)Cc1nc2ccccc2c(=O)[nH]1`, the AC50 is, setting by setting: under setting [1], 14.1 µM [falling, single point]; under setting [2], 11.2 µM [falling, partial curve].

Regarding `COc1ccc(S(=O)(=O)NCC2CCCN(C(=O)CN3CCCCC3)C2)cc1` (stereo not given), the AC50 under setting [1] is 14.1 µM [rising, partial curve, poor fit].

As to `COc1ccc(-c2ccc(-c3nnn(CC(=O)N4CCOCC4)n3)cc2)cc1`, the AC50 under setting [1] was 0.631 µM [falling, full curve].

Consider `CC(=O)Oc1ccc(Cn2cnc3cc4ccccc4cc32)cc1`, for which the AC50 under setting [1] was 7.31 µM [falling, partial curve].

In the case of `COCCNc1nc2ccccc2nc1NS(=O)(=O)c1ccc(C)cc1C`, under setting [1], the AC50 was 4.61 µM [falling, partial curve, poor fit].

Take `COc1ccc(CNC(=O)CCCN2C(=O)c3ccccc3C2=O)cc1`: the AC50 under setting [1] is 2.51 µM [rising, full curve, poor fit].

`COc1cccc2c1OCC(C(=O)Nc1nccs1)=C2`: the AC50 under setting [1] is 5.01 µM [falling, partial curve, poor fit].

Turning to `CC(C)(C)c1ccc(-c2cn(-c3ccc(Br)cc3)c3[n+]2CCCS3)cc1`, under setting [1], the AC50 was 35.5 µM [falling, single point].

As for `C=CCc1ccccc1OCC(CN1CCCCC1)OC(C)=O` (stereo not given), under setting [1], the AC50 is 29.1 µM [falling, single point].

Consider `COC(=O)Cc1c(C)nc2nc(NCc3ccc(Cl)cc3)[nH]n2c1=O`, for which the AC50 under setting [1] is 23.1 µM [falling, partial curve, poor fit].

On to `Cc1sc(N/N=C/c2cccnc2)nc1-c1ccccc1`, for which, under setting [1], the AC50 was 10 µM [falling, partial curve, poor fit].

For the molecule `O=C(c1ccc2c3c(cccc13)CC2)C1CCCN(C(=O)c2cc[n+]([O-])cc2)C1` (stereo not given), the AC50 under setting [1] was 11.2 µM [falling, single point].

As for `CCNC(=S)N/N=C/c1ccc(OCCOc2ccccc2C)cc1`, the AC50 under setting [1] was 2.59 µM [rising, full curve, poor fit].

Consider `Cc1noc(/C=C/N(C)C)c1S(=O)(=O)N1CCCC(C(=O)NCc2cccs2)C1` (stereo not given), for which the AC50 under setting [1] is 18.4 µM [rising, single point].

In the case of `CCCNC(=O)NC(=O)COc1ccc2oc3ccccc3c2c1`, the AC50 under setting [1] was 0.00517 µM [rising, full curve, poor fit].

As for `O=C(COc1ccccc1)N1CCN(C(=O)c2cccc(F)c2)CC1`, the AC50 under setting [1] is 20.6 µM [rising, partial curve, poor fit].

Turning to `CCn1ccnc1CN(C)Cc1cn(-c2ccccc2)nc1-c1ccc(OC)cc1F`, the half-maximal activity concentration (AC50) under setting [1] was 0.0891 µM [rising, full curve, poor fit].

For the molecule `CCOc1cc(NS(=O)(=O)c2ccc(Cl)cc2)c(OCC)cc1NC(=O)CC(C)C`, the AC50 under setting [1] was 29.1 µM [rising, single point].

As for `Cc1cccc(-n2[nH]c3c4c(ccc3c2=O)C(=O)c2ccccc2C4=O)c1`, the AC50 under setting [1] was 0.58 µM [rising, full curve, poor fit].

Consider `Cc1cccc(NC(=O)CSc2nnc(Cn3nnc(-c4ccccc4)n3)n2-c2ccccc2)c1`, for which, under setting [1], the AC50 was 35.5 µM [rising, single point].

Regarding `CC(/C=C/c1ccccc1)=N/NC(=O)CNC(=O)c1ccccc1F`, under setting [1], the AC50 is 1.41 µM [rising, full curve, poor fit].

Regarding `O=c1cc(-c2ccccc2)nc2cc(-c3ccco3)[nH]n12`, the AC50 under setting [1] is 0.891 µM [falling, full curve].

Consider `CC(=O)OCC(=O)[C@@]1(O)CC[C@H]2[C@@H]3CCC4=CC(=O)CC[C@]4(C)[C@H]3[C@@H](O)C[C@@]21C`, for which the concentration at half-maximal activity (AC50) under setting [1] was 1.84 µM [rising, partial curve, poor fit] and 1.46 µM [rising, full curve].

For `CCOc1ccc(N2CC(C(=O)N3CCCc4ccccc43)CC2=O)cc1` (stereo not given), the AC50 under setting [1] was 0.0891 µM [falling, full curve, poor fit].

For the molecule `N#Cc1c(Nc2ccccc2Cl)s[nH]c1=O`, the AC50 under setting [1] was 20 µM [falling, single point].

As for `O=C(CSc1ncnc2ccccc12)NCCCO`, under setting [1], the AC50 was 7.31 µM [falling, partial curve].

In the case of `Cc1cc(-c2nc3ncccc3o2)ccc1NC(=S)NC(=O)C(C)C`, the AC50 under setting [1] was 3.55 µM [rising, partial curve].

As for `COc1ccccc1C(=O)Nc1nnc(CCc2ccccc2)s1`, the AC50 under setting [1] was 0.355 µM [rising, full curve, poor fit].

Take `CC(=O)Nc1ccc(OCCOc2ccc([N+](=O)[O-])cc2)cc1`: under setting [1], the AC50 is 35.5 µM [rising, single point].

For the molecule `COc1ccc(S(=O)(=O)Nc2ccccc2C(=O)Nc2nc(-c3ccc(F)cc3)cs2)cc1OC`, the AC50 under setting [1] was 29.1 µM [falling, single point].

In the case of `CCOc1cccc(OCCOc2ccc(C(=O)c3ccccc3)cc2)c1`, under setting [1], the AC50 is 4.11 µM [rising, single point].

With `O=C1CN(CC(=O)N2CCCCC2)c2ccccc2O1`, the AC50 under setting [1] was 1.41 µM [falling, full curve].

Regarding `COc1cccc(C(=O)Nc2cccc(NC(C)=O)c2)c1`, under setting [1], the AC50 was 4.47 µM [falling, partial curve, poor fit].

With `CCCCOc1ccc(N2CC(C(=O)NCCc3ccc(OC)c(OC)c3)CC2=O)cc1` (stereo not given), the AC50 under setting [1] is 11.2 µM [rising, partial curve, poor fit].

Turning to `Cc1ccc(C)c(OCc2ccc(C(=O)NN)o2)c1`, the AC50 under setting [1] is 2.24 µM [falling, full curve, poor fit].

Consider `Fc1ccc2cc(CCO[C@H]3CCCCO3)ncc2c1`, for which, under setting [1], the AC50 is 7.31 µM [rising, partial curve].

`Cc1ccc(-n2cc(C(=O)c3ccc(F)cc3)nn2)cc1Cl`: under setting [1], the AC50 is 0.794 µM [rising, full curve].

For the molecule `CCC(c1nc2ccccc2c(=O)n1-c1nc2ccccc2s1)N1C(=O)c2ccccc2C1=O` (stereo not given), the AC50 under setting [1] is 16.4 µM [rising, partial curve, poor fit].

Turning to `Cc1ccsc1S(=O)(=O)N1CCCC(CCC(=O)NCc2ccccc2F)C1` (stereo not given), the AC50 under setting [1] is 12.6 µM [rising, partial curve, poor fit].

`Cc1ccc(NC(=O)c2nc[nH]c2C(=O)NCC(=O)OC(C)(C)C)cc1`: the AC50 under setting [2] is 0.708 µM [rising, full curve, poor fit].

On to `Cc1[nH]c(=O)[nH]c(=O)c1NC(=O)CSc1ncccc1-c1nc2ccccc2[nH]1`, for which the AC50 under setting [1] is 11.2 µM [falling, partial curve].

`NC(=O)c1ccc(NC(=O)COC(=O)CCCN2C(=O)c3cccc4cccc(c34)C2=O)cc1`: the concentration at half-maximal activity (AC50) under setting [1] was 1.84 µM [rising, full curve, poor fit].

Regarding `Nc1ccc(-c2nc3ccc(C(=O)O)cc3s2)cc1`, the half-maximal activity concentration (AC50) is 0.13 µM [falling, full curve] under setting [1] and 20.6 µM [rising, partial curve, poor fit] under setting [2].

Take `CC1CCc2c(sc(NC(=O)c3ccc(Cn4cc([N+](=O)[O-])cn4)o3)c2C#N)C1` (stereo not given): the AC50 under setting [1] is 10 µM [falling, partial curve, poor fit].

Take `COc1cccc(C(=O)Nc2c(C)n[nH]c2C)c1`: the concentration at half-maximal activity (AC50) under setting [1] was 16.4 µM [rising, single point].

As for `O=C(Nc1nc2c(F)cc(F)cc2s1)c1ccc2c(c1)OCCO2`, the AC50 under setting [1] is 3.66 µM [falling, partial curve, poor fit].

For the molecule `O=C(CSc1ccc(F)cc1)Nc1ccc(N2CCOCC2)cc1`, the concentration at half-maximal activity (AC50) under setting [1] is 12.6 µM [rising, single point].

Take `Cc1ccccc1-c1nnn(CC(=O)NCc2ccc3c(c2)OCO3)n1`: under setting [1], the AC50 was 2.82 µM [falling, full curve].

`N/C(=N\c1nc2ccccc2o1)NC(=O)c1ccc(F)cc1`: the AC50 under setting [1] was 4.47 µM [falling, full curve].

Take `CCN1CCC(Nc2ccnc3cc(Cl)ccc23)CC1`: the AC50 under setting [1] was 11.2 µM [falling, partial curve, poor fit].

On to `CC(C)CCC1(C)NC(=O)N(CC(=O)NCC(=O)Nc2ccc(F)c(F)c2F)C1=O` (stereo not given), for which the AC50 under setting [1] was 0.184 µM [rising, full curve, poor fit].

As for `Cn1c(=O)n(CC(=O)Nc2ccc(F)cc2)c2ccccc21`, the AC50 under setting [1] is 18.4 µM [rising, single point].
